{
  "source": "paper PMC11009388",
  "about": "“Insights into the molecular mechanism of yellow cuticle coloration by a chitin-binding carotenoprotein in gregarious locusts” (Communications Biology, 2024)",
  "molecular_target": "human 14-3-3 protein isoform γ (human) (UniProt P61981)",
  "experiment": "cross-linking; glutaraldehyde 0.23%, 15 min at 30 °C, 20 mM HEPES pH 7.5, 150 mM NaCl; analysed by SDS-PAGE; both purified",
  "note": "These are yes or no findings as the source states them, for the method shown. Some results given as binding are weak or reduced against the parent protein; the word gives no strength.",
  "data": [
    {"binder": "human 14-3-3 protein isoform γ (protein, UniProt P61981 1-247) MVDREQLVQKARLAEQAERYDDMAAAMKNVTELNEPLSNEERNLLSVAYKNVVGARRSSWRVISSIEQKTSADGNEKKIEMVRAYREKIEKELEAVCQDVLSLLDNYLIKNCSETQYESKVFYLKMKGDYYRYLAEVATGEKRATVVESSEKAYSEAHEISKEHMQPTHPIRLGLALNYSVFYYEIQNAPEQACHLAKTAFDDAIAELDTLNEDSYKDSTLIMQLLRDNLTLWTSDQQDDDGGEGNN", "values": [
      {"measurement": "binding", "result": "binds"}
    ]}
  ]
}
